Data as given in paper PMC10808114, “Yeast 26S proteasome nuclear import is coupled to nucleus-specific degradation of the karyopherin adaptor protein Sts1” (Scientific Reports, 2024).
These are yes or no findings as the source states them, for the method shown. For some assays here: In cells and extracts the contact can be indirect. Some entries that bind do so weakly or less than the wild type. For some assays here: Tags and fused reporters may be left off the sequences shown. Values belong to the molecule of their own block, whether it stands above or below them.

Sequences of proteins named here, by UniProt entry; tags and fusion partners are left off.
UniProt Q02821: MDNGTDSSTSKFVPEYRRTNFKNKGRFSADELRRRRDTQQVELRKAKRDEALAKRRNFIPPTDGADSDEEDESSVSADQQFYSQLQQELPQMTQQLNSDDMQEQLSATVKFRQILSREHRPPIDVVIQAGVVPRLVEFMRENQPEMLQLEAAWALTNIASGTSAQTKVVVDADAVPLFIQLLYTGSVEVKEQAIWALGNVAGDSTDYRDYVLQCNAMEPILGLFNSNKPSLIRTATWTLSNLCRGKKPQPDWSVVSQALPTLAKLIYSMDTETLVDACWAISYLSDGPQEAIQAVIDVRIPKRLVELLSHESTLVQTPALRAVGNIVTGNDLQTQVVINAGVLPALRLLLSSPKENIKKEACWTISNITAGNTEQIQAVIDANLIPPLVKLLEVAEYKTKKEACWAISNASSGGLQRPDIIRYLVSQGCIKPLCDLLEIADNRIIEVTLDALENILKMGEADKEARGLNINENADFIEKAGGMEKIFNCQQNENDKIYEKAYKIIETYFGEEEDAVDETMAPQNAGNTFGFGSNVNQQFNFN
UniProt Q06142: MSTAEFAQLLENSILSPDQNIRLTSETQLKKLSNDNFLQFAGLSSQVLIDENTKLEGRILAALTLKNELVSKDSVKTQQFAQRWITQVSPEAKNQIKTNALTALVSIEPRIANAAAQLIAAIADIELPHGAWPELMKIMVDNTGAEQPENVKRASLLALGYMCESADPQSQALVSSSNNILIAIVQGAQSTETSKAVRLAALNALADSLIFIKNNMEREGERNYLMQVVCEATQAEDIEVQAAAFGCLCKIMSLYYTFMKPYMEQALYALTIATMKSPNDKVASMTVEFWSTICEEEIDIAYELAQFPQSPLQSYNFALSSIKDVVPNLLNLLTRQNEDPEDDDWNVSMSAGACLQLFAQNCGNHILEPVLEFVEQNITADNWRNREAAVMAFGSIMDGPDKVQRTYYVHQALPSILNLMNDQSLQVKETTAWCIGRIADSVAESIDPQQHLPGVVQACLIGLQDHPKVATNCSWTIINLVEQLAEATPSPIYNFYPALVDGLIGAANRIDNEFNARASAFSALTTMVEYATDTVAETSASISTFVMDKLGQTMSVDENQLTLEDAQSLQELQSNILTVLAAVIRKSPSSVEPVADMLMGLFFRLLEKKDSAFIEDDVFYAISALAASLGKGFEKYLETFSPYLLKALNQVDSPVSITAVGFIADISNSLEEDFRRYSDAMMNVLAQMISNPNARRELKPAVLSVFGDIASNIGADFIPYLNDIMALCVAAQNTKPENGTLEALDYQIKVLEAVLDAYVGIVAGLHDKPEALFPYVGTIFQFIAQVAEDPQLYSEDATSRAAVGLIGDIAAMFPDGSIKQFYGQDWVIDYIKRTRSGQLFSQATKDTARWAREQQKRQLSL

How the values were obtained:
[1] = biological target: T1, Sts1-6His (S. cerevisiae) (UniProt P38637); assay: co-purification; Sts1-6His and GST-Srp1 co-expressed in E. coli; clarified extract combined with E. coli extract containing untagged Kap95; full complex purified by 6His-tag binding to TALON resin
T1 sequence: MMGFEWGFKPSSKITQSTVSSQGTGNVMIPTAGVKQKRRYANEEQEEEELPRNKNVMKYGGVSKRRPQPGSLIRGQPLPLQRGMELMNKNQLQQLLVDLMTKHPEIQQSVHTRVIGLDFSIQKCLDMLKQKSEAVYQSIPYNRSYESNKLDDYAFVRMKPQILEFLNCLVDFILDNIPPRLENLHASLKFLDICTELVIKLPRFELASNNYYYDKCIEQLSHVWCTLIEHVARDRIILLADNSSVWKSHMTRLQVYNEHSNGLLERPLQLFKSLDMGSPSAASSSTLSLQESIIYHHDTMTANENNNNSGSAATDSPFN

[2] = biological target: T2, full-length GST-Sts1 (S. cerevisiae) (UniProt P38637); assay: condition: only with four-fold molar excess of 6His-Gsp1 bound to GTP (RanGTP); pull-down; as a2, the pre-formed GST-Sts1/Srp1-6His/Kap95 complex on GSH beads then incubated with four-fold molar excess of 6His-Gsp1GTP (RanGTP), 4 °C, 2 h; what remained on the beads was examined; both purified
T2 sequence: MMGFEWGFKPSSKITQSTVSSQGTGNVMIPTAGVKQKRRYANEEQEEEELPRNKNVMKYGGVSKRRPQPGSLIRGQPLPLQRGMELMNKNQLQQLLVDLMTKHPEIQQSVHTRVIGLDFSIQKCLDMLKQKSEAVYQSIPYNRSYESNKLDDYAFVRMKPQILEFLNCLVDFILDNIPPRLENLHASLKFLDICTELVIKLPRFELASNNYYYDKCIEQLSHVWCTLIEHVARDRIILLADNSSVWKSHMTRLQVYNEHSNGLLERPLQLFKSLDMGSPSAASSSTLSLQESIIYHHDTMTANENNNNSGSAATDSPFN

[3] = biological target: GST-Srp1 (S. cerevisiae) (UniProt Q02821); assay: co-purification; Sts1-6His and GST-Srp1 co-expressed in E. coli; clarified extract combined with E. coli extract containing untagged Kap95; full complex purified by 6His-tag binding to TALON resin
[4] = biological target: GST-Srp1 (S. cerevisiae) (UniProt Q02821); assay: pull-down; complex of Sts1(1–116)-6His with GST-Srp1 as used for the proteasome pull-down (Fig. S1A, B); how it was formed is not told

Molecule: GST-cleaved Kap95 (from UniProt Q06142 1-861)
- binding [2]: no binding

Molecule: untagged Kap95 (in E. coli cell extract) (from UniProt Q06142 1-861)
- binding [1]: binds
- binding [3]: binds

Further lines, results first:

- binding [1]: binds
Molecule: GST-Srp1 (from UniProt Q02821 1-542)

- binding [4]: binds
B1: Sts1(1–116)-6His (domain or fragment, UniProt P38637 1-116)
chain: MMGFEWGFKPSSKITQSTVSSQGTGNVMIPTAGVKQKRRYANEEQEEEELPRNKNVMKYGGVSKRRPQPGSLIRGQPLPLQRGMELMNKNQLQQLLVDLMTKHPEIQQSVHTRVIG
